System: selectively-bred alcohol preferring rats
Assay: Alcohol Preferring Rats In Vivo Model (two-bottle choice)
Design: species or system rat
Details: mean ± SEM; for 6 hr Water (water intake): 6 h after administration; for 24 hr Food (food intake) / 24 hr Water (water intake): 24 h after administration
Experimental: Adult male selectively-bred alcohol preferring rats (which are known in the art to be useful for the study of the effect of test compounds on vountary alcohol intake) were grouped into three groups: vehicle and Compound #8 (50 and 100 mg/kg, po). Rats were housed individually in wire mesh cages under a constant room temperature of 22±1° C. and 12:12 light-dark cycle (8:00-20:00, dark). The animals were fed Agway Prolab Rat/Mouse/ Hamster 3000 formula and water ad libitum.
Alcohol intake was determined using the standard two-bottle choice method. Animals were first given free access to water in a graduated Richter tube for 2 days. Then they were given access to only a solution of 10% (v/v) ethanol for 3 consecutive days. During this period animals became accustomed to drinking from Richter tubes and to the taste and pharmacological effects of alcohol. Thereafter, they were given free access to both water and a solution of 10% alcohol for at least 4 consecutive weeks and throughout the study period. Rats had free access to food. Water and alcohol intake were recorded at 4, 6 and 24 hours after the treatment, whereas food intake was measured at 24 hour. Animals' body weight was measured every day.
After establishment of a stable baseline for alcohol, food, and water intake, rats were administered either vehicle or Compound #8 via oral gavage using a cross-over design with random assignment. To be able to compare the efficacy of these compounds on alcohol intake with an established FDA-approved drug, naltrexone, was included as a positive control. Same rats were given an oral dose of naltrexone (20mg/kg). The interval between treatments was at least 3 days. Alcohol and water intake were recorded 4, 6 and 24 h after the drug administration and food intake was recorded at 24 hr. A total of 8-10 animals per group were used.
The results below are presented as means ±SEM. Alcohol intake (g/kg) was calculated by multiplying the volume of alcohol consumed in ml by 10% and 0.7893 (ethanol density)/body weight in kg. Alcohol preference, expressed as percentage, was calculated as follows: (volume of alcohol consumed in ml/total fluid intake in ml)×100 (Rezvani and Grady, 1994; Rezvani et al., 1997). Statistical differences between drug-treated and control groups were determined by using ANOVA and Turkey Student's t test for multiple comparison.

Compound | 6 hr Water (water intake) (20 mg/kg oral) | 24 hr Food (food intake) (20 mg/kg oral) | 24 hr Water (water intake) (20 mg/kg oral) | 6 hr Water (water intake) (50 mg/kg po) | 24 hr Food (food intake) (50 mg/kg po) | 24 hr Water (water intake) (50 mg/kg po) | 6 hr Water (water intake) (100 mg/kg po) | 24 hr Food (food intake) (100 mg/kg po) | 24 hr Water (water intake) (100 mg/kg po)
O=C1CC[C@@]2(O)[C@H]3Cc4ccc(O)c5c4[C@@]2(CCN3CC2CC2)[C@H]1O5 [Naltrexone, naltrexone, reference compound] | 1.3 ± 0.6 | 18.9 ± 1.2 | 5.1 ± 1.9 |  |  |  |  |  | 
NS(=O)(=O)NC[C@H]1COc2cc(Cl)ccc2O1 [Compound #8, (2S)-(−)-N-(6-Chloro-2,3-dihydro-benzo[1,4]dioxin-2-ylmethyl)-sulfamide] |  |  |  | 2.2 ± 0.7 | 20.9 ± 0.9 | 5.3 ± 2 | 3.7 ± 1.1 | 18.9 ± 1.2 | 8.6 ± 2.3

— US8691867B2, “Use of benzo-fused heterocycle sulfamide derivatives for the treatment of substance abuse and addiction” (Janssen Pharmaceutica NV, priority 2005, dated 2014)
